Measured values reported in PubChem BioAssay (EPA / NIEHS).
This list was built around the results that the source calls inconclusive (neither active nor inactive); the mix of calls is not that of the screen. For some assays here: A potency beside an inconclusive call is a rough fit, not a confirmed value. Activity calls are given as the source filed them. The calls were made as follows: active = hit-call score of the fitted dose curve at least 0.9, where 1 is the maximum; inconclusive = response in the unintended direction; inactive = score below 0.9.

Amino acid sequences for entries named in this document (tags omitted). A change or cut given only in a name is not applied to a line headed by its entry.
UniProt P15204: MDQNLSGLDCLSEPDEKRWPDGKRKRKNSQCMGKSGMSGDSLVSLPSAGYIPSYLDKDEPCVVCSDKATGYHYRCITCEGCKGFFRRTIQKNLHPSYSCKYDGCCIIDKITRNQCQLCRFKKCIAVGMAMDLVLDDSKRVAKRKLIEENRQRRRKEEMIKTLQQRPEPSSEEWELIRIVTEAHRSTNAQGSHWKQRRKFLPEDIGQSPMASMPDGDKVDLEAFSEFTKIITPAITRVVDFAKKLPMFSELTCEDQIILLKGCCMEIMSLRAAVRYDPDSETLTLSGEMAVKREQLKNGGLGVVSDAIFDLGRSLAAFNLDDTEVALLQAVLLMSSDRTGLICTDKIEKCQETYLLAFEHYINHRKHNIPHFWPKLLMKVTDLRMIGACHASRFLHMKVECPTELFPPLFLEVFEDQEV
UniProt P10828: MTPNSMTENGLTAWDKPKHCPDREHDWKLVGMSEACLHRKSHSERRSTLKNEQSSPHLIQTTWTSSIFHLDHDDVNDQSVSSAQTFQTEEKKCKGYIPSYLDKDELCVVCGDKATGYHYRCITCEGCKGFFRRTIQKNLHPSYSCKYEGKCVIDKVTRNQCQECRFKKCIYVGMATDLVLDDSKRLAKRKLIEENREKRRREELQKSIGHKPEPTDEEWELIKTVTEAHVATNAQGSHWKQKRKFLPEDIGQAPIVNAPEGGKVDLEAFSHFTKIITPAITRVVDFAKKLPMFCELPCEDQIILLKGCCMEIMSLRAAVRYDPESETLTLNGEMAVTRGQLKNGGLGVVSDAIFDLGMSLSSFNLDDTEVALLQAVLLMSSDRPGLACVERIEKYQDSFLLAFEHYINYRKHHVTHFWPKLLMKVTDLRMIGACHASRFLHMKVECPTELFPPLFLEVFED
UniProt P10827: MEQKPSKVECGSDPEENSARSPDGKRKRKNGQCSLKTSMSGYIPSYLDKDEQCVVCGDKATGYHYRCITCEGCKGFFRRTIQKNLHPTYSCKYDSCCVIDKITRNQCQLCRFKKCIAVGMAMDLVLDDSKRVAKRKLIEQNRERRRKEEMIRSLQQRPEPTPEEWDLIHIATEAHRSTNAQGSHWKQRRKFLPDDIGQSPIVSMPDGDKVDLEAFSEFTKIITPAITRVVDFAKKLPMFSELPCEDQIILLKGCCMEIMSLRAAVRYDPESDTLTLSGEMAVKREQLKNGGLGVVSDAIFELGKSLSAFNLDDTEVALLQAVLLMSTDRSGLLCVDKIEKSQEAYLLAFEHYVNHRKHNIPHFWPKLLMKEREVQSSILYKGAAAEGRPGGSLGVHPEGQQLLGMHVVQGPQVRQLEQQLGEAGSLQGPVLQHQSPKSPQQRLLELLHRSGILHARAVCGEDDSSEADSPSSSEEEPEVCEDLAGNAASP
UniProt P06401: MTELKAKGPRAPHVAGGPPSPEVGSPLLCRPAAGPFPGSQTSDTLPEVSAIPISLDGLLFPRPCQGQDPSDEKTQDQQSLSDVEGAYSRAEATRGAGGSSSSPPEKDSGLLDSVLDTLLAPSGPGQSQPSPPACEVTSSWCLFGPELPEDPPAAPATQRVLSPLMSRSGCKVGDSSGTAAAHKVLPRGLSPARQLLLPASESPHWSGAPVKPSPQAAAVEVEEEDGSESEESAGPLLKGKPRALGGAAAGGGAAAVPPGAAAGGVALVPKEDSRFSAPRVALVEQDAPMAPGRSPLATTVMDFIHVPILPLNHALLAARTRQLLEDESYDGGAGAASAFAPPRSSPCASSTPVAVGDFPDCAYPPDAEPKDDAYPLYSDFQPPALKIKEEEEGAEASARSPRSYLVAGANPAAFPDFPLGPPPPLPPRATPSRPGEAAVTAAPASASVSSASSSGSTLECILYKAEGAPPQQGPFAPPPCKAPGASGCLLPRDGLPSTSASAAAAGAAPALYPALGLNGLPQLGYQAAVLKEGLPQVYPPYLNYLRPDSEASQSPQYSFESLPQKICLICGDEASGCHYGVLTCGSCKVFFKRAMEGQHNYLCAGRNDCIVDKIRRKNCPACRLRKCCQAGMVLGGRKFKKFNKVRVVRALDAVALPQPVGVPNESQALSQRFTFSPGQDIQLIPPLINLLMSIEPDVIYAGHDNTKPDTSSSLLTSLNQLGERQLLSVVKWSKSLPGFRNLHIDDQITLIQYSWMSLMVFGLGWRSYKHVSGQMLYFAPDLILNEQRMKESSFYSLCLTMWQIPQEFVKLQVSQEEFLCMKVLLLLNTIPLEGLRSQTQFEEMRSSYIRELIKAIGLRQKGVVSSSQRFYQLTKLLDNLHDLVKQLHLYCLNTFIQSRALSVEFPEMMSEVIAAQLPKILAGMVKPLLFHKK

What was measured:
[1] = test system: turtle Thyroid Hormone Receptor, alpha (TRa), gene 101949057; assay: ATG_trTRa_XSP2: Attagene TRANS-FACTORIAL Multi-Species (XSP1) HepG2 Assay for turtle Thyroid Hormone Receptor, alpha (TRa) (AID 2283834);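 also: hits raise reporter mRNA over the DMSO baseline so AC50 marks activators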
In short: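 Transfection of HepG2 with multiple reporter transcription units, then chemical dosing for 24 h. Total RNA was reverse-transcribed, reporter sequences PCR-amplified and FAM-labelled, then sized by capillary electrophoresis. DMSO served as baseline.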

[2] = target: frog Thyroid hormone Receptor alpha (TRa), thra-a (gene 397942) (UniProt P15204); assay: ATG_frTRa_XSP2: Attagene TRANS-FACTORIAL Multi-Species (XSP2) HepG2 Assay for frog Thyroid hormone Receptor alpha (TRa) (AID 2283839);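 as to AC50: AC50 reflects induction of frog TRa-driven reporter mRNA above DMSO baseline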
In short: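 Transfect HepG2 with multiple reporter units (GAL4-UAS), dose chemical, incubate 24 h. Isolate RNA, reverse-transcribe, PCR-amplify reporter, label with 6-FAM by primer extension, digest with HpaI, run capillary electrophoresis; induction scored against DMSO.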

[3] = target: human Thyroid hormone Receptor beta (TRb), THRB (gene 7068) (UniProt P10828); assay: ATG_hTRb_XSP2: Attagene TRANS-FACTORIAL Multi-Species (XSP2) HepG2 Assay for human Thyroid hormone Receptor beta (TRb) (AID 2283840);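 also: actives raise reporter mRNA so potency reflects agonist-like gain of signal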
In short: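 Transient transfection of human HepG2 with multi-species NR-Gal4/GAL4-UAS reporter constructs; 24 h compound treatment; RNA isolation, reverse transcription, PCR and HpaI digest; capillary electrophoresis of labeled fragments; activity fitted upward versus DMSO.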

[4] = CPHEA_Stoker_NIS_Cytotoxicity: Cytotoxicity Assessment for CPHEA's Radioactive Iodide Uptake (RAIU) Assay for Sodium/Iodide Symporter (NIS) Inhibition, Stoker and Laws Labs (AID 2283897)
In short: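 hNIS-HEK293T-EPA cells, human NIS expressed in HEK293T, treated 2 h with chemicals (0.001–100 uM, 0.5% final DMSO). ATP content read by CellTiter-Glo luminescence; loss of signal analysed relative to DMSO.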

[5] = target: human Thyroid hormone Receptor alpha (TRa), THRA (gene 7067) (UniProt P10827); assay: ATG_hTRa_XSP2: Attagene TRANS-FACTORIAL Multi-Species (XSP2) HepG2 Assay for human Thyroid hormone Receptor alpha (TRa) (AID 2283838)
In short: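 Gain-of-signal in reporter mRNA, relative to DMSO, after 24 h dosing of transfected HepG2; quantitation by RT-PCR fragment analysis on capillary electrophoresis.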

[6] = test system: Sodium/Iodide Symporter (NIS), SLC5A5 (gene 6528); assay: CPHEA_Stoker_NIS_Inhibition_RAIU: CPHEA's Radioactive Iodide Uptake (RAIU) Assay for Sodium/Iodide Symporter (NIS) Inhibition, Stoker and Laws Labs (AID 2283841)
In short: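 hNIS-HEK293T-EPA cells incubated 2 h at room temperature with compound (0.001–100 uM, 0.5% DMSO) and 329 pM final 125I in HBSS/10 mM HEPES, pH 7.4. Intracellular 125I counted; normalised to DMSO maximal uptake, triplicate, three biological replicates.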

PGR (gene 5241) [7] = target: PGR (gene 5241) (UniProt P06401); assay: TOX21_PR_BLA_Followup_Agonist_ratio: Tox21 HEK293 Progesterone Receptor (PR) Agonism Beta-lactamase Follow-Up Assay, Ratio (AID 2283933)
In short: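 Read-out: ratio of cleaved (ch2) to uncleaved (ch1) beta-lactamase substrate fluorescence, gain-of-signal relative to DMSO baseline. Cells: PR-UAS-bla HEK293T, 2% charcoal-stripped FBS; compound exposure 16 hr, 37C; substrate 2 hr, RT.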

PGR (gene 5241) [8] = target: PGR (gene 5241) (UniProt P06401); assay: TOX21_PR_BLA_Followup_Antagonist_ratio: Tox21 HEK293 Progesterone Receptor (PR) Antagonism Beta-lactamase Follow-Up Assay, Ratio (AID 2283934)
In short: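 Read-out: blue/green beta-lactamase FRET ratio (cleaved ch2 over uncleaved ch1), fitted relative to DMSO baseline. Cells: PR-UAS-bla HEK293T, GAL4-UAS reporter, stimulated with 1 nM R5020 final; 16 hr compound exposure, 37C.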

[9] = TOX21_PR_BLA_Followup_Agonist_viability: Viability Assessment in the Tox21 HEK293 Progesterone Receptor (PR) Agonism Beta-lactamase Follow-Up Assay (AID 2283935);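 also: signal loss means lower viability so actives are cytotoxic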
Description: TOX21_PR_BLA_Followup is a secondary assay for specificity for the TOX21_PR_BLA_Agonist assay. To differentiate true PR agonists from cytotoxic substances, this follow up assay is multiplexed with a cell viability assay. The compounds were also tested for auto fluorescence that may interfere with the biological target readout resulting in potential false positives and/or negatives. To identify the compounds that stimulate PR signaling, a PR-UAS-bla GripTite cell line i.e. PR-UAS-bla HEK293T (Invitrogen, Carlsbad, CA, USA) containing a beta-lactamase reporter gene under the control of an UAS response element was used to screen Tox21 10K compound library. The cytotoxicity of the Tox21 compound library against the PR-bla cell line was tested in parallel by measuring the cell viability using CellTiter-Glo assay in the same wells. TOX21_PR_BLA_Followup_Agonist_viability is a component of the TOX21_PR_BLA_Followup_Agonist assay. This component measures cell viability using the CellTiter-Glo Luciferase-coupled ATP quantitation.TOX21_PR_BLA_Followup_Agonist_viability used a type of viability reporter where loss-of-signal activity can be used to understand changes in the cell viability. Furthermore, this assay endpoint can be referred to as a secondary readout, because this assay has produced multiple assay endpoints where this one serves a viability function. […]

[10] = TOX21_PR_BLA_Followup_Antagonist_viability: Viability Assessment in the Tox21 HEK293 Progesterone Receptor (PR) Antagonism Beta-lactamase Follow-Up Assay (AID 2283936);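 also: cells exposed to compound with R5020 agonist for 16 h; hits lower the luminescence signal meaning cytotoxicity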
In short: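 PR-UAS-bla HEK293T cells in medium with 2% charcoal-stripped FBS were treated with compounds plus R5020 for 16 hr at 37C. After the beta-lactamase read, CellTiter-Glo was added to the same wells and luminescence read after 30 min at room temperature.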

## CCCCNC(=O)OCC#CI
[1]
  AC50: active: 25.5 µM
[2]
  AC50: active: 100 µM
[3]
  AC50: inconclusive: 100 µM
[4]
  outcome: inactive

## CC(C)Oc1cc(-n2nc(C(C)(C)C)oc2=O)c(Cl)cc1Cl
[1]
  AC50: active: 16.1 µM
[5]
  outcome: inactive
[2]
  outcome: inactive

## NC(=O)C(F)(F)C(F)(F)F
[6]
  AC50: inconclusive: 50 µM

## N#Cc1cc(I)c(O)c(I)c1
PGR (gene 5241) [7]
  outcome: inactive

## CO/N=C(/C(=O)OC)c1ccccc1COc1ccccc1C
PGR (gene 5241) [7]
  AC50: inconclusive: 46.1 µM

## COc1ccc(O)c(C(C)(C)C)c1
PGR (gene 5241) [8]
  AC50: inconclusive: 0.00411 µM

## CCOP(=S)(Oc1ccc([N+](=O)[O-])cc1)c1ccccc1 (centres undefined)
[9]
  AC50: inconclusive: 46.1 µM

## ClC1=C(Cl)[C@]2(Cl)[C@H]3[C@H]([C@@H]4C=C[C@H]3C4)[C@@]1(Cl)C2(Cl)Cl
[10]
  outcome: inactive

## CC(C)CC(C)(c1ccc(O)cc1)c1ccc(O)cc1
[10]
  outcome: inactive
